The list does not hold the whole screen: it is rich in T/C values a quarter to a half above the control, in often repeated tests (any T/C) and in doses without a T/C. Other doses and runs of a compound stand elsewhere. T/C: endpoint of the treated group in % of that of the vehicle group. Some entries give survivors of the animals treated and no T/C: the source files T/C as zero there, which appears to mark a toxic dose or a test without result, not a measured value. Some doses without a T/C left all or most animals alive at the check, yet need not have been tolerated: survival well below the control is almost never listed, so the zero probably covers shortened survival too. Counts of survivors are from the toxicity check (mostly the fifth day) where no day follows; animals may have died later. Schedules are NCI's codes, read here as Q, the interval in days (D) or hours (H), X, the number of doses. Some structures stand for samples that the source files as different forms (salt, stereo form or complex); doses refer to the form tested. Some doses were run more than once; the results are listed from low to high. Brackets with × give the number of equal values in this list. Where survival is the endpoint, this PubChem deposit counts one and a half times the control or more as active, and values a quarter to a half above the control carry no call in these data; other NCI protocols may use other cut-offs. Some T/C values are followed by the survivors on the day toxicity was checked, most often the fifth; without a count, all were alive then.
Tested on: BDF1 mice, B16 melanoma ip, median survival T/C
Assay: NCI In Vivo Anticancer Drug Screen. Data for tumor model B16 Melanoma (intraperitoneal) in B6D2F1 (BDF1) mice
Details: T/C endpoint: median survival time, higher T/C = longer survival
Protocol: The antitumor activity of compounds was measured in mice bearing transplantable tumors. Survival or tumor size were measured and the results are expressed as the measurement made in the treated group (T) divided by the measurement made in the vehicle treated control group (C). The tumor model used in this assay is B16 Melanoma (intraperitoneal) in B6D2F1 (BDF1) mice

[1] = dose: 32.0 mg/kg/injection, schedule: Q01DX009 (ip), vehicle: Klucel (hydroxypropylcellulose) (HPC)
[2] = dose: 32.0 mg/kg/injection, schedule: Q01DX009 (ip), vehicle: water

SMILES: O=C1c2ccccc2C(=O)c2c(NCCNCCO)ccc(NCCNCCO)c21
- T/C (dose: 0.25 mg/kg/injection, schedule: Q01DX009 (ip), vehicle: saline with Tween-80): 125 % of control
- survivor count (dose: 0.25 mg/kg/injection, schedule: Q01DX009 (oral), vehicle: water): 3 of 10
- T/C (dose: 0.5 mg/kg/injection, schedule: Q01DX009 (ip), vehicle: saline with Tween-80): 139 % of control
- T/C (dose: 0.5 mg/kg/injection, schedule: Q01DX009 (ip), vehicle: saline): 133 % of control
- survivor count (dose: 0.5 mg/kg/injection, schedule: Q01DX009 (oral), vehicle: water): 4 of 10
- T/C (dose: 1.0 mg/kg/injection, schedule: Q01DX009 (ip), vehicle: saline with Tween-80): 147 % of control
- T/C (dose: 1.0 mg/kg/injection, schedule: Q01DX009 (ip), vehicle: saline): 125, 125 [9 of 10 alive], 145 % of control
- survivor count (dose: 1.0 mg/kg/injection, schedule: Q01DX009 (oral), vehicle: water): 10 of 10
- T/C (dose: 1.0 mg/kg/injection, schedule: Q03HX024 (ip), vehicle: saline): 146 % of control
- T/C (dose: 2.0 mg/kg/injection, schedule: Q01DX009 (ip), vehicle: other): 131 % of control
- T/C (dose: 2.0 mg/kg/injection, schedule: Q01DX009 (ip), vehicle: saline with Tween-80): 138 % of control
- T/C (dose: 2.0 mg/kg/injection, schedule: Q01DX009 (ip), vehicle: saline, evaluated on day 56): 157 % of control
- T/C (dose: 2.0 mg/kg/injection, schedule: Q01DX009 (ip), vehicle: saline, evaluated on day 60): 124 [9 of 10 alive], 146, 147, 163 % of control
- survivor count (dose: 2.0 mg/kg/injection, schedule: Q01DX009 (oral), vehicle: water): 9 of 10
- T/C (dose: 2.0 mg/kg/injection, schedule: Q01DX009 (sc), vehicle: acid diluted with saline): 144 % of control
- T/C (dose: 2.0 mg/kg/injection, schedule: Q03HX008 (ip), vehicle: saline): 134 % of control
- T/C (dose: 4.0 mg/kg/injection, schedule: Q01DX009 (ip), vehicle: other): 141 % of control
- T/C (dose: 4.0 mg/kg/injection, schedule: Q01DX009 (ip), vehicle: saline, evaluated on day 56): 181 % of control
- T/C (dose: 4.0 mg/kg/injection, schedule: Q01DX009 (ip), vehicle: saline, evaluated on day 60): 147, 163, 168, 178 [9 of 10 alive], 196 % of control
- survivor count (dose: 4.0 mg/kg/injection, schedule: Q01DX009 (oral), vehicle: water): 9 of 10
- T/C (dose: 4.0 mg/kg/injection, schedule: Q03HX008 (ip), vehicle: saline): 146 % of control
- T/C (dose: 8.0 mg/kg/injection, schedule: Q01DX001 (ip), vehicle: saline): 130 % of control
- T/C (dose: 8.0 mg/kg/injection, schedule: Q01DX005 (ip), vehicle: saline): 146 % of control
- T/C (dose: 8.0 mg/kg/injection, schedule: Q01DX009 (ip), vehicle: saline, evaluated on day 56): 222 % of control
- T/C (dose: 8.0 mg/kg/injection, schedule: Q01DX009 (ip), vehicle: saline, evaluated on day 60): 152, 184, 186, 199, 208 % of control
- T/C (dose: 8.0 mg/kg/injection, schedule: Q01DX009 (ip), vehicle: water): 180, 197, 227, 245 % of control
- survivor count (dose: 8.0 mg/kg/injection, schedule: Q01DX009 (oral), vehicle: water): 10 of 10
- T/C (dose: 8.0 mg/kg/injection, schedule: Q03HX008 (ip), vehicle: saline): 147 % of control
- T/C (dose: 8.0 mg/kg/injection, schedule: Q03HX024 (ip), vehicle: saline): 129 % of control
- T/C (dose: 8.0 mg/kg/injection, schedule: Q04DX003 (ip), vehicle: saline): 144 % of control
- T/C (dose: 9.3 mg/kg/injection, schedule: Q01DX001 (ip), vehicle: Klucel (hydroxypropylcellulose) (HPC)): 143 % of control
- T/C (dose: 16.0 mg/kg/injection, schedule: Q01DX001 (ip), vehicle: saline): 147 % of control
- T/C (dose: 16.0 mg/kg/injection, schedule: Q01DX009 (ip), vehicle: saline, evaluated on day 56): 257 % of control
- T/C (dose: 16.0 mg/kg/injection, schedule: Q01DX009 (ip), vehicle: saline, evaluated on day 60): 171, 172 [9 of 10 alive], 207, 219, 236 % of control
- T/C (dose: 16.0 mg/kg/injection, schedule: Q01DX009 (ip), vehicle: water): 203 [9 of 10 alive], 210, 211 % of control (2×)
- T/C (dose: 16.0 mg/kg/injection, schedule: Q01DX009 (sc), vehicle: saline): 134 % of control
- survivor count (dose: 16.0 mg/kg/injection, schedule: Q03HX024 (ip), vehicle: acid diluted with saline): 9 of 10
- survivor count (dose: 16.0 mg/kg/injection, schedule: Q03HX024 (ip), vehicle: saline): 9 of 10
- T/C (dose: 16.0 mg/kg/injection, schedule: Q04DX003 (ip), vehicle: saline): 146 % of control
- T/C (dose: 18.7 mg/kg/injection, schedule: Q01DX001 (ip), vehicle: Klucel (hydroxypropylcellulose) (HPC)): 149 % of control
- T/C (dose: 25.0 mg/kg/injection, schedule: Q01DX001 (ip), vehicle: water): 146 % of control
- T/C [1]: 142 % of control
- survivor count [1]: 9 of 10
- survivor count (dose: 32.0 mg/kg/injection, schedule: Q01DX009 (ip), vehicle: acid diluted with saline): 10 of 10
- survivor count (dose: 32.0 mg/kg/injection, schedule: Q01DX009 (ip), vehicle: other): 10 of 10
- survivor count (dose: 32.0 mg/kg/injection, schedule: Q01DX009 (ip), vehicle: saline with Tween-80): 9 of 10 and 10 of 10
- survivor count (dose: 32.0 mg/kg/injection, schedule: Q01DX009 (ip), vehicle: saline): 9 of 10 and 10 of 10 (2×)
- T/C [2]: 216 and 220 % of control
- survivor count [2]: 8 of 10 and 10 of 10
- survivor count (dose: 32.0 mg/kg/injection, schedule: Q02DX009 (ip), vehicle: saline with Tween-80): 10 of 10
- survivor count (dose: 32.0 mg/kg/injection, schedule: Q02DX009 (ip), vehicle: saline): 9 of 10
